PubChem BioAssay AID743454, Peter MacCallum Cancer Centre, 2014
In all, the deposit lists about 18,000 reagents; shown is a random part of them. Over the whole deposit, 450 (2.5%) are marked active. 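Single biological run; no consistent viability z cut-off exists, so the class columns, not z-scores, define the calls.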 A number with no mark means an inactive call. No sequences are given here.

Aim: 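Search for knock-downs that restore vorinostat killing in resistant colon cancer cells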 (primary screen)
Cell system: human HCT116-VR colon cancer cells, selected for vorinostat resistance
Knock-down reagent: siRNA pool against human genes, 40 nM siRNA pool
Duration: vorinostat for 24 h, read-out about 72 h after transfection
Challenge: vorinostat at 2.5 µM final
Measurement: 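Cell viability by CellTiter-Fluor and caspase 3/7 activity by luminescence, each scaled to mock wells per plate, duplicates averaged, then robust z-scored over all plates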
Reading the numbers: viability robust z-score: higher = more viable cells than screen typical; caspase robust z-score: higher = more caspase 3/7 activity than screen typical
Active means: 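Hits are knock-downs in viability class RV1/RV2 or caspase class CA1/CA2, excluding ones that killed cells in the no-drug cell-count arm; hits then retested with single siRNAs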

| Gene | PubChem SID | viability hit class | caspase hit class | viability robust z-score | caspase robust z-score |
| --- | --- | --- | --- | --- | --- |
| LTN1 (listerin E3 ubiquitin protein ligase 1) | SID134312093 | no change | no change | -0.04 | 0.16 |
| HSP90B1 (heat shock protein 90 beta family member 1) | SID152148402 | no change | no change | 0.08 | 1.04 |
| TK1 (thymidine kinase 1) | SID152150808 | no change | no change | 0.08 | 1.64 |
| NOL12 (nucleolar protein 12) | SID152148570 | no change | no change | -1.82 | 0.74 |
| NAV2 (neuron navigator 2) | SID135621186 | no change | no change | -1.73 | 0.15 |
| TAS2R13 (taste 2 receptor member 13) | SID152151020 | no change | no change | 0.84 | -0.17 |
| RPS12 (ribosomal protein S12) | SID152150751 | no change | no change | -3.54 | -1.62 |
| TAF6L (TATA-box binding protein associated factor 6 like) | SID134316524 | no change | no change | 1.41 | 0 |
| TRIOBP (TRIO and F-actin binding protein) | SID152151739 | no change | no change | -0.97 | 0.04 |
| CALHM1 (calcium homeostasis modulator 1) | SID134329768 | no change | no change | -0.09 | 2.37 |
| RSPO4 (R-spondin 4) | SID135624445 | no change | no change | -0.92 | -0.8 |
| HMG20A (high mobility group 20A) | SID134319497 | no change | no change | -0.06 | -0.99 |
| CHRND (cholinergic receptor nicotinic delta subunit) | SID134311565 | no change | no change | -1.37 | 1 |
| ADORA2A (adenosine A2a receptor) | SID152149997 | no change | no change | 0.91 | -0.28 |
| BTN3A2 (butyrophilin subfamily 3 member A2) | SID152147006 | no change | no change | 1.28 | -1.03 |
| DNAAF1 (dynein axonemal assembly factor 1) | SID152153077 | no change | no change | -0.56 | -0.92 |
| OSTM1 (osteoclastogenesis associated transmembrane protein 1) | SID152147964 | no change | no change | 0.1 | 0.62 |
| PRSS45P (serine protease 45, pseudogene) | SID152153574 | no change | no change | 0.26 | -0.61 |
| STT3A (STT3 oligosaccharyltransferase complex catalytic subunit A) | SID134321036 | no change | no change | 0.18 | -0.73 |
| SLC39A4 | SID152152174 | no change | no change | 1.5 | 0.5 |
| MGARP (mitochondria localized glutamic acid rich protein) | SID135621986 | no change | no change | 0.38 | -0.35 |
| ANK2 (ankyrin 2) | SID152150031 | no change | no change | 0.66 | -0.87 |
| LILRB2 (leukocyte immunoglobulin like receptor B2) | SID135623897 | no change | no change | 1.3 | -0.36 |
| IFI30 (IFI30 lysosomal thiol reductase) | SID134322879 | no change | no change | 1.12 | 0.66 |
| ZFYVE19 (zinc finger FYVE-type containing 19) | SID135623427 | no change | no change | 0.55 | -0.02 |
| AP5B1 (adaptor related protein complex 5 subunit beta 1) | SID152148825 | no change | no change | 0.5 | 0.38 |

Part of the list above, reduced to “viability hit class”.
HMG20A (high mobility group 20A) [SID134319497]	no change
CHRND (cholinergic receptor nicotinic delta subunit) [SID134311565]	no change
ADORA2A (adenosine A2a receptor) [SID152149997]	no change
BTN3A2 (butyrophilin subfamily 3 member A2) [SID152147006]	no change
DNAAF1 (dynein axonemal assembly factor 1) [SID152153077]	no change
OSTM1 (osteoclastogenesis associated transmembrane protein 1) [SID152147964]	no change
PRSS45P (serine protease 45, pseudogene) [SID152153574]	no change
STT3A (STT3 oligosaccharyltransferase complex catalytic subunit A) [SID134321036]	no change
SLC39A4 [SID152152174]	no change

The listing continues.
| Gene | PubChem SID | viability hit class | caspase hit class | viability robust z-score | caspase robust z-score |
| --- | --- | --- | --- | --- | --- |
| NAA15 (N-alpha-acetyltransferase 15, NatA auxiliary subunit) | SID152153237 | no change | no change | 0.26 | 0.28 |
| SACM1L (SAC1 like phosphatidylinositide phosphatase) | SID134312341 | no change | no change | -0.12 | -0.57 |
| KRTAP15-1 (keratin associated protein 15-1) | SID134322539 | no change | no change | 1.29 | -0.49 |
| KRTAP1-1 (keratin associated protein 1-1) | SID134317840 | no change | no change | -0.79 | 0.58 |
| PRLH (prolactin releasing hormone) | SID134324567 | no change | no change | -0.34 | 1.3 |
| LINC00471 (long independently transcribed non-coding RNA 471) | SID134322400 | no change | no change | 1.46 | -0.55 |
| NPHP3 (nephrocystin 3) | SID134323065 | no change | no change | -0.04 | 1.23 |
| ABITRAM (actin binding transcription modulator) | SID134320109 | no change | no change | 0.7 | -1.01 |
| SNCB (synuclein beta) | SID134315737 | no change | no change | -0.67 | -0.42 |
| LYSMD4 (LysM domain containing 4) | SID134320583 | no change | no change | -0.68 | -0.52 |
| INO80 (INO80 complex ATPase subunit) | SID135620787 | no change | no change | -0.16 | 1.58 |
| PGAM1 (phosphoglycerate mutase 1) | SID134313731 | RV2 (reduced viability) (active) | no change | -3.12 | 3.27 |
| SECISBP2 (SECIS binding protein 2) | SID135622981 | no change | no change | 0.31 | 0.18 |
| DNM1L (dynamin 1L) | SID134316389 | no change | no change | -0.16 | -0.18 |
| LSM12 (LSM12 homolog) | SID152156206 | no change | no change | 0.53 | -0.47 |
| OSCP1 | SID134320542 | no change | no change | -1.87 | -0.54 |
| RWDD4 (RWD domain containing 4) | SID135623211 | no change | no change | 0.62 | 0.42 |
| ADAMTS8 (ADAM metallopeptidase with thrombospondin type 1 motif 8) | SID152153759 | no change | no change | -0.92 | 0.58 |
| TMEM144 (transmembrane protein 144) | SID152149813 | no change | no change | 0.56 | -0.36 |
| TMCC1 (transmembrane and coiled-coil domain family 1) | SID152147457 | no change | no change | 0.36 | 0.9 |
| TNK2 (tyrosine kinase non receptor 2) | SID56478482 | no change | no change | -0.75 | -0.7 |
| RHBG (Rh family B glycoprotein) | SID152148628 | no change | no change | -0.56 | 0.25 |
| KCTD8 (potassium channel tetramerization domain containing 8) | SID135625011 | no change | no change | -0.18 | 3.55 |
| TCHHL1 (trichohyalin like 1) | SID152156656 | no change | no change | -0.15 | 1.27 |
| ACP2 (acid phosphatase 2, lysosomal) | SID134313091 | no change | no change | -1 | -0.15 |
| DTNB (dystrobrevin beta) | SID135624188 | no change | no change | -1.14 | -1.14 |
| NFATC2IP (nuclear factor of activated T cells 2 interacting protein) | SID135623562 | no change | no change | 0.62 | 1.52 |
| THOC2 (THO complex subunit 2) | SID152152076 | no change | no change | -1.31 | 4.17 |
| LYRM9 (LYR motif containing 9) | SID135624945 | no change | no change | -1.44 | 1.93 |
| SUSD4 (sushi domain containing 4) | SID152152058 | no change | no change | -0.56 | -1.06 |
| HUS1 (HUS1 checkpoint clamp component) | SID135620649 | no change | no change | 1.06 | 3.44 |
